{
  "source": "patent US20110257245A1",
  "about": "“METHODS OF IDENTIFYING REGULATORS OF CELLULAR PROTEOSTASIS” (The Board of Trustees of the Leland Stanford Junior …, priority 2010, published 2011)",
  "test_system": "HEK293 cells stably expressing UbG76V-GFP",
  "test": "Two-color flow cytometry of htt(Q91)-chFP-specific accumulation of UbG76V-GFP UPS reporter",
  "assay_type": "cell-based",
  "details": "500 nM, overnight incubation",
  "note": "At least one compound was matched to its structure with a doubt left.",
  "data": [
    {"smiles": "COC1=C2C[C@@H](C)C[C@H](OC)[C@H](O)[C@@H](C)/C=C(\\C)[C@H](OC(N)=O)[C@@H](OC)/C=C\\C=C(/C)C(=O)NC(=CC1=O)C2=O", "note": "[geldanamycin]", "values": [
      {"measurement": "effect on htt(Q91)-chFP-specific accumulation of UbG76V-GFP", "result": "shifted the threshold at which UbG76V-GFP accumulates to higher concentrations and attenuated the magnitude of the response"}
    ]}
  ]
}
